The target in the assay is BRME1 (endogenous, mouse testis) (mouse (endogenous in testis)). Nature of the assay: affinity purification with mass spectrometry; IP with the BRME1 antibody on Dynabeads protein A from mouse testis extract against control IgG; wash with 400 mM KCl buffer; semi-quantitative mass spectrometry.

Results are given in words; binding and its absence hold for the method and conditions named. In cells and extracts the contact can be indirect. Here binding means that the protein was enriched with, or labelled near, the bait; the list need not be complete.

B1: MEILB2 (endogenous, mouse testis) (protein, UniProt Q9D4G2 1-338)
chain: MAATVGDGSGTEEACRNMESKEEFVKVRKKDLERLTTEVMQIRDFLPRILNGELLESFQKLKMVEKNLERKEQELEQLIMDREHFKARLETAQADSGREKKEKLALRQQLNEAKQQLLQQAEYCTQMGAVTCTLLWGVSSSEEVVKTILGGDKALKFFNITGQTMESFVKSLDGDVKEVDSDENQFVFALAGIVTNVAAIACGREFLVNSSRVLLDTMLQLLGDLKPGQCTKLKVLMLMSLYNVSINSKGLKYITESPGFIPLLWWLLSDPDAEVCLHTLRLIQSVVLEPDVFSKVASELQSSLPLQRILAMSKSRNSHLQSAAQELLEDLRALDCNV
B1: the binding entry is reported as “binds”.
